The exact form of at least one protein or probe is not confirmed.
Test system: DROSHA D3-G2 complex (DROSHA fragment D3 + DGCR8 fragment G2) + SRSF7
Assay: EMSA
Conditions: 2 mM EDTA, ternary complex supershift, denser than DROSHA/RNA band, EMSA: 50 mM Tris-HCl pH 7.5, 125 mM NaCl, 10% glycerol, 0.2 mg/ml BSA, 1 mM DTT, 12 ul, on ice 1 h, 4% native PAGE, 1x TBE, 4 C, ethidium bromide, recombinant protein

GGGCGGACAGACAGACAGUGCAGUCACCCAUAAAGUAGAAAGCACUACUAACAGCACUGGAGGGUGUAGUGUUUCCUACUUUAUGGAUGAGUGUACUGUGGGCUUCGG [pri-miR-142 (CNNC, CUUC WT)]
binding result: binds

Source: article PMC9905709
